Reference: article PMC12548433
These are yes or no findings as the source states them, for the method shown. In cells and extracts the contact can be indirect. Tags and fused reporters may be left off the sequences shown.

Target: T1, FLAG-tagged leader (L) protein of Theiler's murine encephalomyelitis virus (Theiler's murine encephalomyelitis virus) (UniProt P13899)
T1 sequence: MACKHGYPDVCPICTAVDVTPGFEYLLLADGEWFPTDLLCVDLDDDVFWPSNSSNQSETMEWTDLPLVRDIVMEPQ
Assay: co-IP

B1: ribonucleic acid export 1 (RAE1) (protein, UniProt P78406 1-368)
chain: MSLFGTTSGFGTSGTSMFGSATTDNHNPMKDIEVTSSPDDSIGCLSFSPPTLPGNFLIAGSWANDVRCWEVQDSGQTIPKAQQMHTGPVLDVCWSDDGSKVFTASCDKTAKMWDLSSNQAIQIAQHDAPVKTIHWIKAPNYSCVMTGSWDKTLKFWDTRSSNPMMVLQLPERCYCADVIYPMAVVATAERGLIVYQLENQPSEFRRIESPLKHQHRCVAIFKDKQNKPTGFALGSIEGRVAIHYINPPNPAKDNFTFKCHRSNGTNTSAPQDIYAVNGIAFHPVHGTLATVGSDGRFSFWDKDARTKLKTSEQLDQPISACCFNHNGNIFAYASSYDWSKGHEFYNPQKKNYIFLRNAAEELKPRNKK
binding: no binding
